Assay results: the supplement of paper PMC4604168 (melanoma cell lines)
The other results are listed elsewhere or left out. Many values rest on one well or one pass, so single values are uncertain.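 The apoptosis fraction was the count of cleaved-PARP antibody-stained nuclei relative to all DNA-stained nuclei, imaged in 1,536-well plates. Screening doses were set so most cells survived, and baseline and induced cleaved-PARP levels vary greatly across cell lines.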

The molecules below were run on WM451Lu (assay: cleaved PARP positive nuclei fraction relative to DMSO control; melanoma cells; higher = more apoptosis). Details: library dose: low library concentration; 72 h.
CC1(C)CCC(c2ccc(Cl)cc2)=C(CN2CCN(c3ccc(C(=O)NS(=O)(=O)c4ccc(N[C@H](CCN5CCOCC5)CSc5ccccc5)c(S(=O)(=O)C(F)(F)F)c4)cc3)CC2)C1 + C=C(c1ccc(C(=O)O)cc1)c1cc2c(cc1C)C(C)(C)CCC2(C)C [Bexarotene] (first compound 0.4 µM, partner dose 2 µM) was tested, and the “cleaved PARP positive nuclei fraction” value was 59.1%. Cn1sc(=O)n(Cc2ccccc2)c1=O + CCN(CC)CCCCNc1ncc2cc(-c3cc(OC)cc(OC)c3)c(NC(=O)NC(C)(C)C)nc2n1 [PD173074] (first compound 0.4 µM, partner dose 0.1 µM) was tested, and the “cleaved PARP positive nuclei fraction” value was 396%. With CC1(C)CCC(c2ccc(Cl)cc2)=C(CN2CCN(c3ccc(C(=O)NS(=O)(=O)c4ccc(N[C@H](CCN5CCOCC5)CSc5ccccc5)c(S(=O)(=O)C(F)(F)F)c4)cc3)CC2)C1 + Cn1sc(=O)n(Cc2ccccc2)c1=O [TDZD-8] (first compound 0.4 µM, partner dose 0.4 µM) the “cleaved PARP positive nuclei fraction” value was 53.1%. For C[C@]1(O)C[C@@H](c2nc(-c3ccc4ccc(-c5ccccc5)nc4c3)c3c(N)nccn32)C1 + Cc1cc(Nc2cc(N3CCN(C)CC3)nc(/C=C/c3ccccc3)n2)n[nH]1 [ENMD2076] (first compound 0.4 µM, partner dose 0.04 µM), the “cleaved PARP positive nuclei fraction” value was 142%. For C[C@@H](N)c1ccc(C(=O)Nc2ccnc3[nH]ccc23)cc1 + CN(C)S(=O)(=O)c1ccc2c(c1)/C(=C/c1cc3c([nH]1)CCCC3)C(=O)N2 [SU6656] (first compound 0.4 µM, partner dose 0.4 µM), the “cleaved PARP positive nuclei fraction” value was 107%. In the case of NC1(c2ccc(-c3nc4ccn5c(=O)[nH]nc5c4cc3-c3ccccc3)cc2)CCC1 + CN(NC(=O)CC(=O)NN(C)C(=S)c1ccccc1)C(=S)c1ccccc1 [STA4783] (first compound 0.4 µM, partner dose 0.006 µM), the “cleaved PARP positive nuclei fraction” value is reported as 69%. With Cn1sc(=O)n(Cc2ccccc2)c1=O + CC(C)(C)c1cnc(CSc2cnc(NC(=O)C3CCNCC3)s2)o1 [SNS-032] (first compound 0.4 µM, partner dose 0.01 µM) the “cleaved PARP positive nuclei fraction” value was 113%. Cn1cnc2c(F)c(Nc3ccc(Br)cc3Cl)c(C(=O)NOCCO)cc21 [selumetinib] + COc1cc(N2CCC(N3CCN(C)CC3)CC2)ccc1Nc1ncc(Cl)c(Nc2ccccc2S(=O)(=O)C(C)C)n1 [NVP-TAE684] (first compound 0.015 µM, partner dose 0.08 µM) was tested, and the “cleaved PARP positive nuclei fraction” value was 37.1%. With Cn1cnc2c(F)c(Nc3ccc(Br)cc3Cl)c(C(=O)NOCCO)cc21 [selumetinib] + O=S(=O)(c1ccccc1)N(CC(F)(F)F)c1ccc(C(O)(C(F)(F)F)C(F)(F)F)cc1 [T0901317] (first compound 0.015 µM, partner dose 1.4 µM) the “cleaved PARP positive nuclei fraction” value was 94.5%. For C[C@@H](N)c1ccc(C(=O)Nc2ccnc3[nH]ccc23)cc1 + c1cc(-c2cnn3cc(-c4ccc(OCCN5CCCCC5)cc4)cnc23)ccn1 [Dorsomorphin] (first compound 0.4 µM, partner dose 0.4 µM), the “cleaved PARP positive nuclei fraction” value was 50.7%. In the case of NC1(c2ccc(-c3nc4ccn5c(=O)[nH]nc5c4cc3-c3ccccc3)cc2)CCC1 + Cn1c(=O)n(-c2ccc(C(C)(C)C#N)cc2)c2c3cc(-c4cnc5ccccc5c4)ccc3ncc21 [NVP-BEZ235] (first compound 0.4 µM, partner dose 0.004 µM), the “cleaved PARP positive nuclei fraction” value is reported as 208%. For NC(=O)c1ccc(N(C(N)=O)c2c(F)cccc2F)nc1-c1ccc(F)cc1F + CC(C)(C)c1cnc(CSc2cnc(NC(=O)C3CCNCC3)s2)o1 [SNS-032] (first compound 0.4 µM, partner dose 0.01 µM), the “cleaved PARP positive nuclei fraction” value was 24%. For C[C@]1(O)C[C@@H](c2nc(-c3ccc4ccc(-c5ccccc5)nc4c3)c3c(N)nccn32)C1 + CNC(=O)c1cc(Oc2ccc(NC(=O)Nc3ccc(Cl)c(C(F)(F)F)c3)cc2)ccn1 [sorafenib] (first compound 0.4 µM, partner dose 0.4 µM), the “cleaved PARP positive nuclei fraction” value was 179%. Cn1sc(=O)n(Cc2ccccc2)c1=O + CCc1ccc(CCOc2ccc(CC3SC(=O)NC3=O)cc2)nc1 [pioglitazone] (first compound 0.4 µM, partner dose 2 µM) was tested, and the “cleaved PARP positive nuclei fraction” value was 164%.
